Measurements taken from article PMC12072129.
These are yes or no findings as the source states them, for the method shown. Binding seen in cells or lysates may run through a third protein. A result given as binding can be weak or reduced; the word gives no strength.

Biological target: PIBF1, endogenous in mouse germ cell lines (mouse (endogenous in GC1 and GC2))
Assay: co-IP; GC1 and GC2 cell lysates incubated with anti-PIBF1 antibody, anti-PCM1 antibody or rabbit IgG; endogenous USO1 detected in the precipitate

B1: USO1 vesicle transport factor (USO1), endogenous in mouse germ cell lines (protein, UniProt Q9Z1Z0 1-959)
chain: MNFLRGVMGGQSAGPQHTEAETIQKLCDRVASSTLLDDRRNAVRALKSLSKKYRLEVGIQAMEHLIHVLQTDRSDSEIIAYALDTLYNIISNDEEEELEENSTRQSEDLGSQFTEIFIKQPENVTLLLSLLEEFDFHVRWPGVRLLTSLLKQLGPPVQQIILVSPMGVSRLMDLLADSREIIRNDGVLLLQALTRSNGAIQKIVAFENAFERLLDIITEEGNSDGGIVVEDCLILLQNLLKTNNSNQNFFKEGSYIQRMKPWFEVGEENSGWSAQKVTNLHLMLQLVRVLVSPTNPPGATSSCQKAMFQCGLLQQLCTILMATGIPADILTETINTVSEVIRGCQVNQDYFASVNAPSNPPRPAIVVLLMSMVNERQPFVLRCAVLYCFQCFLYKNEKGQGEIVATLLPSTIDATGNSVSAGQLLCGGLFSTDSLSNWCAAVALAHALQGNATQKEQLLRVQLATSIGNPPVSLLQQCTNILSQGSKIQTRVGLLMLLCTWLSNCPIAVTHFLHNSANVPFLTGQIAENLGEEEQLVQGLCALLLGISIYFNDNSLENYTKEKLKQLIEKRIGKENFIEKLGFISKHELYSRASQKPQPNFPSPEYMIFDHEFTKLVKELEGVITKAIYKSSEEDKKEEEVKKTLEQHDNIVTHYKNMIREQDLQLEELKQQVSTLKCQNEQLQTAVTQQASQIQQHKDQYNLLKVQLGKDNHHQGSHGDGAQVNGIQPEEISRLREEIEELKSQQALLQGQLAEKDSLIENLKSSQASGMSEQASATCPPRDPEQVAELKQELTALKSQLCSQSLEITRLQTENCELLQRAETLAKSVPVEGESEHVSAAKTTDVEGRLSALLQETKELKNEIKALSEERTAIQKQLDSSNSTIAILQTEKDKLDLEVTDSKKEQDDLLVLLADQDQKILSLKSKLKDLGHPVEEEDESGDQEDDDDEIDDGDKDQDI
B1 was tested, and the binding was “binds”.
